# PubChem BioAssay AID743121, NCATS – 2013
# Aim: 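Knock-downs that sensitise breast cancer cells to camptothecin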 (primary screen)
# Cells: MDA-MB-231 cells, a human breast cancer line
# Reagents: single siRNA against human genes, 20 nM siRNA (0.8 pmol per well)
# Time to read-out: 120 h (drug added 48 h after transfection, read 72 h later)
# Challenge: camptothecin 20 nM (about EC30) for 72 h; vehicle 0.1% DMSO in parallel plates
# Measured: 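Cell viability by ATP luminescence (CellTiter-Glo) as % of non-targeting siRNA wells, and the log2 ratio of viability without drug over viability with camptothecin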
# Direction: log2 vehicle/camptothecin viability: higher = stronger sensitisation to camptothecin
# Rule for the call: 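Each gene scored by redundant siRNA activity (RSA) over its individual siRNA ratios; a gene is called active at p < 0.001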
# This is an unselected part of about 26,000 deposited reagents. 167 of them (0.63%) count as active. 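Calls are per gene from RSA p-values that are not deposited; an individual active-marked siRNA can sensitise only weakly.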 Reagents against one gene are numbered here. Not all columns of the deposit are shown. No sequences are given here.
Gene,siRNA no.,log2 vehicle/camptothecin viability,activity call
MAP2K1,1,0.11,inactive
MAP2K1,2,-0.449,inactive
MAP2K1,3,0.218,inactive
MAP2K1,4,-0.0497,inactive
COL4A3,1,-0.0591,inactive
COL4A3,2,-0.246,inactive
COL4A3,3,-0.0818,inactive
COL4A3,4,-0.36,inactive
SESTD1,1,-0.0321,inactive
SESTD1,2,-0.15,inactive
SESTD1,3,-0.624,inactive
TOLLIP,1,0.00902,inactive
TOLLIP,2,-0.0505,inactive
TOLLIP,3,0.319,inactive
TOLLIP,4,-0.145,inactive
NFKBIE,1,-0.294,inactive
NFKBIE,2,-0.265,inactive
NFKBIE,3,0.535,inactive
ACTL6A,1,-0.235,inactive
ACTL6A,2,-0.426,inactive
ACTL6A,3,0.132,inactive
ACTL6A,4,0.0416,inactive
SCN7A,1,-0.0415,inactive
SCN7A,2,0.0248,inactive
SCN7A,3,-0.00806,inactive
SCN7A,4,0.00702,inactive
FBXO5,1,0.193,inactive
FBXO5,2,-0.549,inactive
FBXO5,3,-0.194,inactive
FBXO5,4,0.0251,inactive
CPOX,1,-0.333,inactive
CPOX,2,-0.263,inactive
CPOX,3,-0.291,inactive
CPOX,4,-0.271,inactive
MAOB,1,-0.318,inactive
MAOB,2,-0.192,inactive
MAOB,3,-0.149,inactive
MAOB,4,-0.179,inactive
CDK2,1,-0.387,inactive
CDK2,2,-0.113,inactive
CDK2,3,-0.142,inactive
CDK2,4,-0.239,inactive
PAQR5,1,0.134,inactive
PAQR5,2,0.232,inactive
PAQR5,3,-0.0824,inactive
P2RX4,1,-0.524,inactive
P2RX4,2,-0.0912,inactive
P2RX4,3,0.0993,inactive
PTPRH,1,0.223,inactive
PTPRH,2,-0.426,inactive
PTPRH,3,-0.174,inactive
PTPRH,4,-0.479,inactive
CLCA4,1,-0.301,inactive
CLCA4,2,-0.347,inactive
CLCA4,3,0.0289,inactive
CLCA4,4,-0.206,inactive
ANKH,1,-0.459,inactive
ANKH,2,0.368,inactive
ANKH,3,-0.353,inactive
ANKH,4,0.13,inactive
PELI2,1,-0.308,inactive
PELI2,2,0.155,inactive
PELI2,3,-0.249,inactive
PELI2,4,-0.377,inactive
P2RY1,1,0.186,inactive
P2RY1,2,-0.0848,inactive
P2RY1,3,-0.349,inactive
P2RY1,4,0.454,inactive

Targets listed so far whose gene name starts with N or n:
Gene,siRNA no.,log2 vehicle/camptothecin viability,activity call
NFKBIE,1,-0.294,inactive
NFKBIE,2,-0.265,inactive
NFKBIE,3,0.535,inactive
